Values quoted from earlier work as cited in US9993529B2, “Stable formulations of a hyaluronan-degrading enzyme” (Halozyme, Inc., priority 2011, dated 2018).
Some entries share one result that the patent states for a list of compounds.

Conditions: in vivo; cited from earlier work

detemir: long-lasting insulin analog
Onset: 4 to 6 h | Peak: 18 to 28 h
